System: Pfa1 cells
Test: Cellular toxicity, same assay as Example B.4 without TAM (Example B.5)
Assay type: cell-based, mouse
Conditions: TC50 divided by IC50 from Example B.4
From the text: Cellular Toxicity of Compounds of the Invention
An estimate of the toxicity for compounds of the invention was obtained by using the same assay as described in Example B.4, but without the addition of TAM. […] Such TC50 values obtained for certain compounds disclosed herein, together with an approximate therapeutic window (estimated by dividing each TC50 by the corresponding IC50 determined from example B.4) are shown in Table 3.

Row | SMILES | Therapeutic Window (approx.. fold)
1 | Cc1cccc2c1NC1(CCCCC1)C(NCc1ccccc1)=N2 [C-263] | >20 fold
2 | FC(F)(F)c1cccc(CNC2=Nc3cc(Cl)c(Cl)cc3NC23CCCCC3)c1 [C-264] | >20 fold
3 | Fc1ccc(CNC2=Nc3cc(Cl)c(Cl)cc3NC23CCCCC3)c(F)c1 [C-265] | >50 fold
4 | Fc1cccc(F)c1CNC1=Nc2ccccc2NC12CCCCCC2 [C-266] | >20 fold
5 | Cc1cccc(CNC2=Nc3cc(Cl)c(Cl)cc3NC23CCCCCC3)c1 [C-267] | >50 fold
6 | Cc1cccc(CNC2=Nc3cc(Cl)c(Cl)cc3NC23CCCCC3)c1 [C-268] | >100 fold
7 | CC(C)(C)c1ccc(CNC2=Nc3ccccc3NC23CCCCC3)cc1 [C-269] | >20 fold
8 | Clc1ccccc1CNC1=Nc2ccccc2NC12CCNCC2 [N-1] | >500 fold
9 | Clc1cccc(CNC2=Nc3ccccc3NC23CCNCC3)c1 [N-2] | >500 fold
10 | Clc1ccc(CNC2=Nc3ccccc3NC23CCNCC3)cc1 [N-3] | >5000 fold
11 | Fc1cccc(CNC2=Nc3ccccc3NC23CCNCC3)c1 [N-5] | >200 fold
12 | COc1cccc(CNC2=Nc3ccccc3NC23CCNCC3)c1 [N-14] | >100 fold
13 | FC(F)(F)c1cccc(CNC2=Nc3ccccc3NC23CCNCC3)c1 [N-23] | >1000 fold
14 | Clc1ccc(CNC2=Nc3ccccc3NC23CCNCC3)c(Cl)c1 [N-56] | >1000 fold
15 | Fc1cc(Cl)ccc1CNC1=Nc2ccccc2NC12CCNCC2 [N-61] | >1000 fold
16 | Clc1cccc(CCNC2=Nc3ccccc3NC23CCNCC3)c1 [N-79] | >50 fold

Row | SMILES | Therapeutic Window (approx.. fold)
17 | CN1CCC2(CC1)Nc1ccccc1N=C2NCc1cccc(Cl)c1 [N-90] | >500 fold
18 | CC(=O)N1CCC2(CC1)Nc1ccccc1N=C2NCc1cccc(Cl)c1 [N-99] | >100 fold
19 | Cc1cc2c(cc1C)NC1(CCNCC1)C(NCc1cccc(Cl)c1)=N2 [N-111] | >1000 fold
20 | Clc1cccc(CNC2=Nc3cc(Cl)c(Cl)cc3NC23CCNCC3)c1 [N-115] | >200 fold
21 | Fc1cc2c(cc1F)NC1(CCNCC1)C(NCc1cccc(Cl)c1)=N2 [N-117] | >20 fold
22 | CN1CCC2(CC1)Nc1ccccc1N=C2NCc1ccccc1 [N-204] | >50 fold
23 | Clc1cc2c(cc1Cl)NC1(CCNCC1)C(NCc1ccccc1)=N2 [N-205] | >100 fold
24 | c1ccc(CNC2=Nc3ccccc3NC23CCNCC3)cc1 [N-206] | >100 fold
25 | Clc1cc2c(cc1Cl)NC1(CCNCC1)C(NCc1ccccc1Cl)=N2 [N-207] | >500 fold
26 | Clc1ccc(CNC2=Nc3cc(Cl)c(Cl)cc3NC23CCNCC3)cc1 [N-208] | >500 fold
27 | CN1CCC2(CC1)Nc1ccccc1N=C2NCc1ccccc1Cl [N-209] | >100 fold
28 | Cc1cc2c(cc1C)NC1(CCNCC1)C(NCc1ccccc1)=N2 [N-210] | >1000 fold
29 | Clc1ccc(CNC2=Nc3ccccc3NC23CCNCC3)cc1Cl [N-211] | >1000 fold
30 | c1ccc(CNC2=Nc3ccccc3NC23CCCNCC3)cc1 (stereo not shown) [N-212] | >10 fold
31 | CN1CCC2(CC1)Nc1ccccc1N=C2NCc1ccc(Cl)cc1 [N-213] | >100 fold
